The results in this text go back to US20070065890A1, “Method for promoting formation of facultative heterochromatin” (priority 2005, published 2007).

By UniProt entry, the sequences of proteins in these tests, tags left out. Where a name states a change or a piece, a line headed by the entry shows the natural chain unless it says otherwise. Chains listed by the source or under a name are the forms on record and can include a tag or linker. Residues count along the entry.
UniProt P10412: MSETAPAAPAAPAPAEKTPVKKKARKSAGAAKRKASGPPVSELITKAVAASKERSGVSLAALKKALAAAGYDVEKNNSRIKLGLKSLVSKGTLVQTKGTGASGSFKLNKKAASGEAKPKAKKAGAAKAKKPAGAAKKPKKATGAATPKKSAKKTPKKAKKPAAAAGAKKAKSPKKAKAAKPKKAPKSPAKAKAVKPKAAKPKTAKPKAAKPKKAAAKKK
HA-tagged H1b expressed in 293 cells: residues 2-219 of P10412
UniProt Q96EB6: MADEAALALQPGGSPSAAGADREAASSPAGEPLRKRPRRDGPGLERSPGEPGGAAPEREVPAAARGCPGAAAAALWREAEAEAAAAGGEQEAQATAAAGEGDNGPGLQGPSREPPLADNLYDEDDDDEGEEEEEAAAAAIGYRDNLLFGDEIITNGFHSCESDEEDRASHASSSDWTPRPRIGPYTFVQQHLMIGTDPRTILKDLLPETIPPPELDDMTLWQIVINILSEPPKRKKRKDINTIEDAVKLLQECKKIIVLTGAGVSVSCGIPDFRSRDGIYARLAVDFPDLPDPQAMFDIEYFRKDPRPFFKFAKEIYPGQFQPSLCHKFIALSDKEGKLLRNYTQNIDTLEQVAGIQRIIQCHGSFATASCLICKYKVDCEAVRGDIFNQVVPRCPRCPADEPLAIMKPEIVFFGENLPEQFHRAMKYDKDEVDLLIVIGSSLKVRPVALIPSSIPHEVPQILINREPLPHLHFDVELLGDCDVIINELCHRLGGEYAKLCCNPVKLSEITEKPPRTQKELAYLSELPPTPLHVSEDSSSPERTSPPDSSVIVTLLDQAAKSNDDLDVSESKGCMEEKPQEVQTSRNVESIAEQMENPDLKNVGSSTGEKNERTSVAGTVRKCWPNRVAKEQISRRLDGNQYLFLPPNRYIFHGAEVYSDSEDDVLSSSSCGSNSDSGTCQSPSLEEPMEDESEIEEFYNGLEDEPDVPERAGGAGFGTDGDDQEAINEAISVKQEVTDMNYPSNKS

No constants are given. Whether binding was seen depends on the method and setting. Binding seen in cells or lysates may run through a third protein. Some entries that bind do so weakly or less than the wild type.

Experiment [1] concerns the target purified recombinant HA-H1b (expressed in E. coli) (human) (UniProt P10412). Briefly: in vitro pull-down, western blot. (In general: A western blot detects proteins with antibodies after separation by electrophoresis.)
In experiment [2] the target is HA-tagged H1b expressed in 293 cells (human) (UniProt P10412). Briefly: co-immunoprecipitation with anti-HA resin from 293 cell extracts.

Regarding “fusion protein containing the SirT1-specific N-terminal domain fused to FLAG (SirT1 1-268) (from UniProt Q96EB6 1-268)”, the binding entry in experiment [1] was “binds”. On to “endogenous SirT1 (from UniProt Q96EB6 2-747) (enzyme)”, for which, in experiment [2], the binding result is “binds”.
